At least one structure is not confirmed: it was looked up by name or label, or the drawing left a doubt.
What was measured:
encapsulated ES cells = assay: Intracapsular aggregate size of encapsulated ES cells; assay type: cell-based, mouse; conditions: 2.2% alginate, 10^-7 M RA
E-Cadherin = E-Cadherin expression of encapsulated ES cells (immunofluorescence); assay type: cell-based, mouse; conditions: RA supplemented, 2.2% alginate
[1] = system: embryonal carcinoma cell P19; conditions: P19 culture treated in retinoic acid; cited from earlier work

SMILES: CC1=C(/C=C/C(C)=C/C=C/C(C)=C/C(=O)O)C(C)(C)CCC1 [retinoic acid, trans-retinoic acid]
- cell aggregation relative to non-supplemented cells (encapsulated ES cells): markedly decreased cell aggregation
- percentage of encapsulated cells expressing E-Cadherin compared to basal condition (E-Cadherin): much lower
- decrease in aggregate volume compared to the untreated case [1]: more than 75%
